# Values quoted from earlier work, collected in PMC4359537, “Pharmacological characterisation of murine α4β1δ GABAA receptors expressed in Xenopus oocytes” (BMC Neuroscience, 2015).
# pEC50: −log10 of the molar value.
# What was measured:
# human α4β1δ receptor = conditions: read-out: GABA potency (EC50); human receptor in Xenopus oocytes; cited from earlier work
# α4β1δ receptor = conditions: read-out: GABA potency (EC50); rat receptor in Xenopus oocytes; cited from earlier work
smiles,measurement,setting,value
"NCCCC(=O)O [GABA, γ-Aminobutyric acid]",pEC50,human α4β1δ receptor,7.62
same,pEC50,α4β1δ receptor,5.69
